Results deposited as PubChem BioAssay AID652272 (Drosophila RNAi Screening Center, 2013)
The deposit covers about 21,000 reagents; below is an unselected part of those with a known target gene and a result. Of all reagents, 503 (2.4%) were called active. 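Raw plate light values, not normalised; calls rest on replicate z-scores that were not deposited; hits include reporter decreases as well as increases.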 Names joined by + are all predicted targets of the reagent. The record does not give: the amount of reagent, the time to read-out.

Test: 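Finding fly genes that regulate Hedgehog signal transduction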 (primary screen)
System: Drosophila clone 8 (Cl8) cells
Knock-down reagent: long dsRNA against Drosophila genes
Read-out: 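Firefly light from a Hedgehog-responsive ptc promoter reporter and Renilla reference light, both read on a plate reader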
Scale: firefly Hh reporter signal: higher = more ptc reporter light; Renilla reference signal: higher = more Renilla control light
Call rule: 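Hit when the z-score averaged over two replicates is under -2 or over +3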
Meaning of the calls: active = hit: reporter lowered or raised; inactive = not a hit

no.	target gene	DRSC id	firefly Hh reporter signal, replicate 1	firefly Hh reporter signal, replicate 2	firefly Hh reporter signal, replicate 3	Renilla reference signal, replicate 1	Renilla reference signal, replicate 2	activity call
1	CG15022 (GeneID 38549)	DRSC08476	50215	54758		8064	4209	inactive
2	vib (GeneID 42306)	DRSC17094	1.10e5	1.39e5		4708	5331	inactive
3	CG15721 (GeneID 32247)	DRSC19688	90773	2.66e5		2448	11504	inactive
4	ZnT63C (GeneID 38407)	DRSC08032	1.18e5	2.34e5		3869	9318	inactive
5	ZnT63C (GeneID 38407)	DRSC08033	1.04e5	2.25e5		3058	9021	inactive
6	ZnT63C (GeneID 38407)	DRSC08519	1.44e5	1.06e5		6296	4473	inactive
7	nan (GeneID 39571)	DRSC10551	75419			2440	2209	inactive
8	CG14313 (GeneID 42176)	DRSC14792	5.75e5	91205		29532	2183	inactive
9	CG12780 (GeneID 35834)	DRSC06169	1.06e5	62715		2861	5171	inactive
10	CG2061 (GeneID 32042)	DRSC19348	91328	80376		2314	2145	inactive
11	CG16898 (GeneID 37276)	DRSC06635	92016	53799		2354	3651	inactive
12	CG43110 (GeneID 12798330)	DRSC05661	1.04e5	2.24e5		2807	9126	inactive
13	Cbs (GeneID 33081)	DRSC20553	92912	1.20e5		2346	2451	inactive
14	Lcp65APsi (GeneID 3771993)	DRSC08795	1.17e5	2.27e5		2992	9336	inactive
15	Lcp65APsi (GeneID 3771993)	DRSC10342	83044	59244		6455	5136	inactive
16	eIF3g2 (GeneID 42422)	DRSC14275	4.79e5	60027		20884	1312	inactive
17	CG4115 (GeneID 41499)	DRSC15545	68884	1.20e5		2662	3717	inactive
18	CG7548 (GeneID 38843)	DRSC10874	66753	49997		6964	3552	inactive
19	CG7465 (GeneID 38553)	DRSC08592	78872	57208		6154	4596	inactive
20	Pi3K59F (GeneID 37733)	DRSC04640	58709	47036		2434	1920	inactive
21	CG31601 (GeneID 318835)	DRSC03678	1.26e5	1.71e5		3544	6640	inactive
22	akirin (GeneID 38821)	DRSC11000	76331	25881		5361	2672	active
23	smp-30 (GeneID 41786)	DRSC17059	1.11e5	93723		4278	2540	inactive
24	CG7099 (GeneID 34753)	DRSC03006	67410	94049		3104	3537	inactive
25	CG4872 (GeneID 32676)	DRSC19921	89964	66834		2300	1556	inactive
26	OS9 + Hf	DRSC03392	82977	52035		3076	2403	inactive
27	eIF4E4 (GeneID 38743)	DRSC09701	69430	68871		581	2802	inactive
28	CG3880 (GeneID 37957)	DRSC04428	1.07e5	65521		2692	6155	inactive
29	CG10051 (GeneID 37222)	DRSC05959	80637	73001		2474	6040	inactive
30	Hsp23 (GeneID 39077)	DRSC11188	1.10e5	45723		4324	2229	inactive
31	CG6959 (GeneID 41434)	DRSC16151	74507	1.10e5		2281	2992	inactive
32	CG43439 + CG32388	DRSC08861	1.34e5	2.07e5		3448	7233	inactive
33	CG15649 (GeneID 37371)	DRSC04240	1.10e5	75929		2806	7303	inactive
34	pyr (GeneID 36255)	DRSC06319	1.52e5	3.71e5	94080	3624	3540	inactive
35	Arts + Apl	DRSC10349	1.68e5			6429	4601	inactive
36	Obp69a (GeneID 39411)	DRSC11247	50637	16904	23831	1408	888	inactive
37	CG34056 (GeneID 38106)	DRSC08374	57120	46327		1703	3452	inactive
38	NPF (GeneID 42018)	DRSC17019	76668	77907		2756	2434	inactive
39	aurA (GeneID 41446)	DRSC16905	99621	1.01e5		4305	2137	inactive
40	Apoltp (GeneID 34283)	DRSC02508	56499	31312		2355	1616	inactive
41	Regnase-1 (GeneID 42394)	DRSC14278	82330	65537		3739	2656	inactive
42	CG17075 (GeneID 33191)	DRSC00483	69344	54347		2780	2285	inactive
43	Vps16B (GeneID 43521)	DRSC15304	92292	1.09e5		2336	5925	inactive
44	CG2617 (GeneID 35331)	DRSC02712	75861	49002		2384	4391	inactive
45	kud (GeneID 39882)	DRSC11086	1.62e5			6763	4076	inactive
46	CG18764 (GeneID 59239)	DRSC15391	98160	1.25e5		2406	6195	inactive
47	Alp8 (GeneID 37540)	DRSC04353	1.85e5	71433		4091	5593	inactive
48	vis + achi	DRSC07277	94105	54677		4019	2324	inactive
49	CG34033 (GeneID 3885602)	DRSC05190	1.15e5	2.01e5		2985	9472	inactive
50	CG14693 (GeneID 41299)	DRSC14916	1.03e5	1.48e5		1981	4081	inactive
51	AANATL2 (GeneID 33874)	DRSC03227	86116	31270		2385	3545	inactive
52	trpl (GeneID 36003)	DRSC06728	1.13e5	65717		2618	6038	inactive
53	trpl (GeneID 36003)	DRSC06729	1.53e5	70120		3537	2426	inactive
54	CG3402 (GeneID 38077)	DRSC08567	1.38e5	83913		5995	2825	inactive
55	Jon66Ci (GeneID 38952)	DRSC10772	44604	40186		4780	3527	inactive
56	Ref1 (GeneID 44029)	DRSC12497	2.95e5	1.36e5	91051	25952	6087	active
57	EMC10 (GeneID 40396)	DRSC11850	93466	89337		3240	2577	inactive
58	dsd (GeneID 43315)	DRSC13829	48059	2.45e5		12813	5337	inactive
59	dsd (GeneID 43315)	DRSC15850	1.24e5	1.09e5		3104	2621	inactive
60	TBC1d7 (GeneID 42869)	DRSC15985	5.00e5	86621		25723	2976	inactive
61	nmo (GeneID 38890)	DRSC08902	1.23e5	2.07e5		2972	8528	inactive
62	nmo (GeneID 38890)	DRSC11377	97464	73128		3456	2792	inactive
63	Sec63 (GeneID 38819)	DRSC11002	62355	6.23e5	71200	8474	27741	inactive
64	Srg1 (GeneID 42969)	DRSC14640	5.57e5	1.60e5		27365	5116	inactive
65	CG1138 (GeneID 40805)	DRSC12530	22176	60521		801	1682	inactive
66	CG4230 (GeneID 33743)	DRSC02740	67996	98593		3384	4635	inactive
67	Ufsp2 (GeneID 39687)	DRSC10231	1.17e5	54049		4448	2360	inactive
68	Brca2 (GeneID 37916)	DRSC04219	73248	53218		1196	5320	inactive
69	Brca2 (GeneID 37916)	DRSC04220	75544	58707		1511	5924	inactive
70	Sclp (GeneID 32156)	DRSC19851	1.13e5	86864		1953	2267	inactive
71	CG9682 (GeneID 43602)	DRSC16536	1.15e5	99318		2595	2635	inactive
72	CG10565 (GeneID 40332)	DRSC11620	64081	51572		2744	2304	inactive
73	CG30109 + CG30108	DRSC05674	89776	2.02e5		2772	7826	inactive

Single entries from the list.
Value for smp-30 (GeneID 41786) [DRSC17059] in “activity call”: inactive
Alp8 (GeneID 37540) [DRSC04353], activity call → inactive
CG3880 (GeneID 37957) [DRSC04428], firefly Hh reporter signal, replicate 1: 1.07e5
Obp69a (GeneID 39411) [DRSC11247], firefly Hh reporter signal, replicate 1 → 50637
CG4230 (GeneID 33743) [DRSC02740], firefly Hh reporter signal, replicate 1 → 67996
Result for CG34056 (GeneID 38106) [DRSC08374] in “Renilla reference signal, replicate 2”: 3452
